In paper doi:10.1101/2023.12.13.571441:
Results are given in words; binding and its absence hold for the method and conditions named. A result given as binding can be weak or reduced; the word gives no strength.

Target: T1, CviR (Chromobacterium violaceum ATCC 12472) (UniProt Q7NQP7)
T1 sequence: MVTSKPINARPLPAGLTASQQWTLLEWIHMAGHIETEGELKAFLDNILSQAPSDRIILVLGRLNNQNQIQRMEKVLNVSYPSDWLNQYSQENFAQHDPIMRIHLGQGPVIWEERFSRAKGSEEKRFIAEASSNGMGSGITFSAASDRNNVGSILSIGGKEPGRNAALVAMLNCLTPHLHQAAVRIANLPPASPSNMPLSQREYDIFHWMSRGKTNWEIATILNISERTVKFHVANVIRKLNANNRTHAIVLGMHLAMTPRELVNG
Assay: two-hybrid

VioS (Chromobacterium violaceum ATCC 12472)
binding: binds
